Data from the supplement of paper PMC4962491.
± gives the standard deviation of the averaged measurements. The entries are a selection whose mix differs from that of the whole data set. This data set is noisy: repeats of one test often differ as much as different tests do.

System: FaDu
Assay: mitochondrial oxygen consumption rate normalised to cell number, Z score over the library; higher = higher oxygen consumption (negative = OCR reduction)
Conditions: treatment time 24 h, assay medium: 5 mM galactose, 5 mM pyruvate, 4 mM glutamine
Protocol: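 Primary screen: FaDu cells were incubated 24 h with Pharmakon 1600 / TDI oncology set compounds at 2 or 10 uM. Mitochondrial-specific OCR (basal minus 2 uM antimycin A) was measured on a Seahorse XF96 in assay medium with 5 mM galactose, 5 mM pyruvate and 4 mM glutamine, then corrected for Hoechst cell number and expressed as a Z score […]. Compounds that cut cell number by >66% were excluded. Two repeats.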

Q: How did the “mitochondrial oxygen consumption rate normalised” value (2 µM) turn out when `CC(C)CC(N)=O` was run?
A: 0.411 ± 0.072

Q: And the “mitochondrial oxygen consumption rate normalised” value (10 µM)?
A: 0.337 ± 0.48

Q: `CN1CCN(C2=Nc3ccccc3Oc3ccc(Cl)cc32)CC1` was tested. Which “mitochondrial oxygen consumption rate normalised” value (2 µM) did it give?
A: -0.643 ± 0.19

Q: Which “mitochondrial oxygen consumption rate normalised” value (2 µM) does the source give for `NCc1ccccc1CC(=O)N[C@@H]1C(=O)N2C(C(=O)O)=C(CSc3nnnn3CC(=O)O)CS[C@H]12` here?
A: -0.306 ± 0.43

Q: For `N=C(NCCCCCCNC(=N)NC(=N)Nc1ccc(Cl)cc1)NC(=N)Nc1ccc(Cl)cc1`, which “mitochondrial oxygen consumption rate normalised” value (2 µM) is on record?
A: -3.21 ± 0.35

Q: `COc1c2occc2cc2ccc(=O)oc12` [Methoxsalen] was tested. Which “mitochondrial oxygen consumption rate normalised” value (2 µM) did it give?
A: 0.78 ± 0.14

Q: Which “mitochondrial oxygen consumption rate normalised” value (2 µM) does the source give for `COc1c2occc2cc2ccc(=O)oc12` here?
A: -1.61 ± 0.69

Q: How did the “mitochondrial oxygen consumption rate normalised” value (2 µM) turn out when `N#Cc1ccc(C(c2ccc(C#N)cc2)n2cncn2)cc1` [Letrozole] was run?
A: 0.658 ± 0.17

Q: `N#Cc1ccc(C(c2ccc(C#N)cc2)n2cncn2)cc1` was tested. Which “mitochondrial oxygen consumption rate normalised” value (2 µM) did it give?
A: 0.437 ± 0.059

Q: `Clc1ccc(CCC(Cn2ccnc2)Sc2c(Cl)cccc2Cl)cc1` (configuration not stated) was tested. Which “mitochondrial oxygen consumption rate normalised” value (2 µM) did it give?
A: -0.904 ± 0.79

Q: Which “mitochondrial oxygen consumption rate normalised” value (2 µM) does the source give for `C[N+]1(C)CCC(OC(=O)C(O)(c2ccccc2)C2CCCC2)C1` (configuration not stated) here?
A: -0.712 ± 1.7

Q: For `O=C(O)c1cn(-c2ccc(F)cc2)c2cc(N3CCNCC3)c(F)cc2c1=O`, which “mitochondrial oxygen consumption rate normalised” value (2 µM) is on record?
A: -0.00615 ± 1.2

Q: For `O=C(O)Cc1ccc(-c2ccccc2)cc1`, which “mitochondrial oxygen consumption rate normalised” value (2 µM) is on record?
A: -0.546 ± 1.1

Q: For `C[C@@H]1C[C@H]2[C@@H]3C[C@H](F)C4=CC(=O)C=C[C@]4(C)[C@@]3(F)[C@@H](O)C[C@]2(C)[C@@]1(O)C(=O)CO`, which “mitochondrial oxygen consumption rate normalised” value (2 µM) is on record?
A: 2.28 ± 0.38

Q: Which “mitochondrial oxygen consumption rate normalised” value (2 µM) does the source give for `CC(=O)OCC(=O)[C@@]1(O)[C@@H](C)C[C@H]2[C@@H]3CCC4=CC(=O)C=C[C@]4(C)[C@@]3(F)[C@@H](O)C[C@@]21C` here?
A: -0.716 ± 0.39

Q: For `CO[C@H]1C[C@H](O[C@H]2[C@H](C)O[C@@H](O[C@@H]3/C(C)=C/C[C@@H]4C[C@@H](C[C@]5(C=C[C@H](C)[C@@H](C6CCCCC6)O5)O4)OC(=O)[C@@H]4C=C(C)[C@@H](O)[C@H]5OC/C(=C\C=C\[C@@H]3C)[C@]54O)C[C@@H]2OC)O[C@@H](C)[C@@H]1O`, which “mitochondrial oxygen consumption rate normalised” value (2 µM) is on record?
A: 0.388 ± 0.33

Q: Which “mitochondrial oxygen consumption rate normalised” value (2 µM) does the source give for `O=C1c2c(O)cccc2Cc2cccc(O)c21` here?
A: 0.107 ± 0.14

Q: How did the “mitochondrial oxygen consumption rate normalised” value (2 µM) turn out when `CC[N+](C)(CC)CCOC(=O)C(O)(c1ccccc1)C1CCCCC1` (configuration not stated) was run?
A: 0.23 ± 0.33

Q: For `COc1cc(C(=O)OCCCN2CCCN(CCCOC(=O)c3cc(OC)c(OC)c(OC)c3)CC2)cc(OC)c1OC`, which “mitochondrial oxygen consumption rate normalised” value (2 µM) is on record?
A: 0.604 ± 0.06

Q: `CN(C)CCCN1c2ccccc2Sc2ccc(C(F)(F)F)cc21` was tested. Which “mitochondrial oxygen consumption rate normalised” value (2 µM) did it give?
A: -0.0939 ± 0.67

Q: For `CCCCC(O)c1ccccc1` (configuration not stated), which “mitochondrial oxygen consumption rate normalised” value (2 µM) is on record?
A: -0.565 ± 0.28

Q: How did the “mitochondrial oxygen consumption rate normalised” value (2 µM) turn out when `CC(N/C(=N\C#N)Nc1ccncc1)C(C)(C)C` (configuration not stated) was run?
A: 0.503 ± 0.21

Q: Which “mitochondrial oxygen consumption rate normalised” value (2 µM) does the source give for `CC1(C)OC(=O)C(OCC2CC2)=C1c1ccc(S(C)(=O)=O)cc1` here?
A: 0.0502 ± 0.39

Q: With `CCN(CC)CCOC(=O)C1(C2CCCCC2)CCCCC1` as the compound, how does the “mitochondrial oxygen consumption rate normalised” value (2 µM) read?
A: -0.317 ± 0.84

Q: `CCCCOCCOCCOCc1cc2c(cc1CCC)OCO2` was tested. Which “mitochondrial oxygen consumption rate normalised” value (2 µM) did it give?
A: 0.317 ± 1.2

Q: How did the “mitochondrial oxygen consumption rate normalised” value (2 µM) turn out when `CC(=O)Oc1ccccc1C(=O)Nc1ncc([N+](=O)[O-])s1` was run?
A: -0.115 ± 1.3

Q: `Oc1cc(O)c2c(c1)O[C@H](c1ccc(O)c(O)c1)[C@@H](O)C2` was tested. Which “mitochondrial oxygen consumption rate normalised” value (2 µM) did it give?
A: -0.405 ± 0.28

Q: With `O=C(O)CCc1nc(-c2ccccc2)c(-c2ccccc2)o1` as the compound, how does the “mitochondrial oxygen consumption rate normalised” value (2 µM) read?
A: -0.0757 ± 0.69

Q: Which “mitochondrial oxygen consumption rate normalised” value (2 µM) does the source give for `O=C1c2ccccc2C(=O)C1c1ccccc1` here?
A: -0.216 ± 0.3

Q: What about the “mitochondrial oxygen consumption rate normalised” value (10 µM) of the same compound?
A: -1.52 ± 0.92

Q: With `Clc1ccc2c(c1)C(N1CCNCC1)=Nc1ccccc1O2` as the compound, how does the “mitochondrial oxygen consumption rate normalised” value (2 µM) read?
A: -0.971 ± 1.3

Q: `OCCN1CCN(CCCN2c3ccccc3Sc3ccc(C(F)(F)F)cc32)CC1` was tested. Which “mitochondrial oxygen consumption rate normalised” value (2 µM) did it give?
A: 1.24 ± 0.43

Q: With `CC(C)(Oc1ccc(CCNC(=O)c2ccc(Cl)cc2)cc1)C(=O)O` as the compound, how does the “mitochondrial oxygen consumption rate normalised” value (2 µM) read?
A: 1.05 ± 0.24

Q: For `c1ccc(CC2=NCCN2)cc1`, which “mitochondrial oxygen consumption rate normalised” value (2 µM) is on record?
A: -0.152 ± 0.14

Q: How did the “mitochondrial oxygen consumption rate normalised” value (2 µM) turn out when `CC1=C(/C=C/C(C)=C/C=C/C(C)=C/C=C/C=C(C)/C=C/C=C(C)/C=C/C2=C(C)CCCC2(C)C)C(C)(C)CCC1` [beta-CAROTENE] was run?
A: 0.423 ± 0.15

Q: How did the “mitochondrial oxygen consumption rate normalised” value (2 µM) turn out when `CC(C(=O)O)c1ccc(CC2CCCC2=O)cc1` (configuration not stated) was run?
A: -0.864 ± 0.58

Q: Which “mitochondrial oxygen consumption rate normalised” value (2 µM) does the source give for `CO[C@H]1/C=C/O[C@@]2(C)Oc3c(C)c(O)c4c(O)c(c(/C=N/N5CCN(C)CC5)c(O)c4c3C2=O)NC(=O)/C(C)=C\C=C\[C@H](C)[C@H](O)[C@@H](C)[C@@H](O)[C@@H](C)[C@H](OC(C)=O)[C@@H]1C` here?
A: -0.572 ± 0.12

Q: What does the source list for `CCCSc1ccc2[nH]c(NC(=O)OC)nc2c1`?
A: mitochondrial oxygen consumption rate normalised (2 µM): 1.01 ± 0.65; mitochondrial oxygen consumption rate normalised (10 µM): 0.883 ± 0.12

Q: `Cc1c(Cl)cccc1Nc1ccccc1C(=O)O` was tested. Which “mitochondrial oxygen consumption rate normalised” value (2 µM) did it give?
A: -0.68 ± 1.3

Q: For `O=C(O)c1ccccc1-c1c2cc(I)c(=O)c(I)c-2oc2c(I)c(O)c(I)cc12`, which “mitochondrial oxygen consumption rate normalised” value (2 µM) is on record?
A: 0.759 ± 0.47

Q: How did the “mitochondrial oxygen consumption rate normalised” value (2 µM) turn out when `CCc1ccc(CCOc2ccc(CC3SC(=O)NC3=O)cc2)nc1` (configuration not stated) was run?
A: -0.169 ± 0.75

Q: With `Cc1ccc(N(CC2=NCCN2)c2cccc(O)c2)cc1` as the compound, how does the “mitochondrial oxygen consumption rate normalised” value (2 µM) read?
A: -0.678 ± 0.44

Q: How did the “mitochondrial oxygen consumption rate normalised” value (2 µM) turn out when `O=C1c2c(O)cc(CO)cc2C(OC2OC(CO)C(O)C(O)C2O)c2cccc(OC3OC(CO)C(O)C(O)C3O)c21` (configuration not stated) [CASANTHRANOL [cascaroside A shown]] was run?
A: 0.4 ± 0.24

Q: With `CN(C)[C@@H]1C(O)=C(C(N)=O)C(=O)[C@@]2(O)C(O)=C3C(=O)c4c(O)cccc4[C@@](C)(O)[C@H]3C[C@@H]12` as the compound, how does the “mitochondrial oxygen consumption rate normalised” value (2 µM) read?
A: -0.8419 ± 0.0073

Q: With `C[C@H](N[C@@H](CCc1ccccc1)C(=O)O)C(=O)N1CCC[C@H]1C(=O)O` as the compound, how does the “mitochondrial oxygen consumption rate normalised” value (2 µM) read?
A: 0.503 ± 0.43

Q: Which “mitochondrial oxygen consumption rate normalised” value (2 µM) does the source give for `COC(=O)[C@H](c1ccccc1Cl)N1CCc2sccc2C1` here?
A: 0.423 ± 1.1

Q: For `C[C@]12CCC(=O)C=C1CC[C@@H]1[C@@H]2C(=O)C[C@@]2(C)[C@H]1CC[C@]2(O)C(=O)CO`, which “mitochondrial oxygen consumption rate normalised” value (2 µM) is on record?
A: -0.395 ± 0.56

Q: `COCCCC/C(=N\OCCN)c1ccc(C(F)(F)F)cc1` was tested. Which “mitochondrial oxygen consumption rate normalised” value (2 µM) did it give?
A: 0.251 ± 0.47

Q: `CC(=O)[C@@]12O[C@](C)(c3ccccc3)O[C@@H]1C[C@H]1[C@@H]3CCC4=CC(=O)CC[C@]4(C)[C@H]3CC[C@@]12C` was tested. Which “mitochondrial oxygen consumption rate normalised” value (2 µM) did it give?
A: -0.271 ± 0.92

Q: Which “mitochondrial oxygen consumption rate normalised” value (2 µM) does the source give for `NC(=O)N[C@@H](CCC(=O)O)C(=O)O` here?
A: -0.164 ± 0.87

Q: For `Nc1nc(F)nc2c1ncn2[C@@H]1O[C@H](COP(=O)(O)O)[C@@H](O)[C@@H]1O`, which “mitochondrial oxygen consumption rate normalised” value (2 µM) is on record?
A: -0.579 ± 0.45
